Measured values as given in PubChem BioAssay AID1259415 (National Center for Advancing Translational Sciences (NCATS), 2018).
Screen size: about 410,000 compounds; about 18,000 (4.4%) were called active. Inconclusive results, whose numbers are uncertain, are shown with a selection of clear calls. No stated cut-off is given here; in the data, active means activity change below about -60%; inconclusive means no clear call, values can overlap the other calls; inactive means above about -39%. The source holds several records for some structures; these can differ, active in one and inactive in another.
On the % scale 0 is the no-effect control and ±100 the full control effect.

Assay: qHTS Assay for inhibitors of the human cytomegalovirus (HCMV)
Conditions: HFF cells, HCMV-luciferase reporter, 72 h; at 57.5 µM; hits give low values
Method in brief: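 Compounds were evaluated in HFFs infected with an HCMV luciferase reporter virus (MOI 1 PFU/cell). Luciferase in lysates collected 72 h post infection served as the replication measure.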
In the case of `CCOC(=O)N(C)[C@H]1C[C@H]2c3[nH]c4ccccc4c3CCN2C[C@H]1[C@H](C)O`, the activity change, negative = inhibition is reported as inactive: 21.2%. With `Nc1nc2c(ncn2[C@H]2C[C@H](O)[C@@H](CO)O2)c(=O)[nH]1` the activity change, negative = inhibition was inconclusive: -50.9%. With `CC(C(=O)N1CCCc2ccccc21)N1CCN(c2ccccn2)CC1` (stereo not given) the activity change, negative = inhibition was inconclusive: -54.8%. With `CC(=O)Nc1ccc(S(=O)(=O)N2CCC(C(=O)NCc3cccnc3)CC2)cc1` the activity change, negative = inhibition was inactive: -2.88%. For `CC(C)c1ccc(OCC(=O)NNC(=O)c2cnccn2)cc1`, the activity change, negative = inhibition was inactive: -17.4%. With `COC(=O)[C@@]12C[C@@H](CC(=O)NCc3cccc4ccccc34)C(=O)N(Cc3ccco3)C1=CCC(C)(C)C2` the activity change, negative = inhibition was inactive: 29.7%. For `COc1ccc(C)cc1S(=O)(=O)Nc1ccc2c(c1)OCCO2`, the activity change, negative = inhibition was inactive: 16.1%. With `CN(C)c1cccc(C(=O)NN2C(=O)NC3(CCCCC3)C2=O)c1` the activity change, negative = inhibition was inactive: 67.4%. For `Cc1ccc(C2(C)NC(=O)N(CCOc3ccccc3)C2=O)cc1` (stereo not given), the activity change, negative = inhibition was inconclusive: -45%. In the case of `O=C(Nc1ccc2nc(SCC(=O)N3CCOCC3)sc2c1)c1ccc(Cl)cc1`, the activity change, negative = inhibition is reported as active: -73.9%. For `COc1cccc(CNC(=O)CN2C(=O)CSc3ccc(S(=O)(=O)N4CCCC4)cc32)c1`, the activity change, negative = inhibition was inconclusive: -44.9%. With `Cc1cc(C)c(NC(=O)CN2C(=O)CCSc3ccc(S(=O)(=O)N4CCCC4)cc32)c(C)c1` the activity change, negative = inhibition was inconclusive: -53.7%. In the case of `CCc1ccc(OC)c(S(=O)(=O)N2CCN(C(=O)c3ccco3)CC2)c1`, the activity change, negative = inhibition is reported as inactive: 47.3%. For `O=C(Nc1cccc(NC(=O)c2sc3ccccc3c2Cl)c1)c1ccco1`, the activity change, negative = inhibition was inconclusive: -59.7%. With `COc1ccc(C2C(=O)N(C3CCCCC3)CC(=O)N2C2CCCCC2)cc1` (stereo not given) the activity change, negative = inhibition was inconclusive: -50.5%. For `CCOC(=O)c1c(NC(=O)C(c2ccccc2)c2ccccc2)sc2c1C1CCN2CC1`, the activity change, negative = inhibition was active: -64.8%. For `Cc1cc(C)c2c(=N)c3ccccc3n(CCCCCCCCn3c4ccccc4c(=N)c4c(C)cc(C)nc43)c2n1`, the activity change, negative = inhibition was active: -74.6%. With `CCN(c1ncnc2c1cnn2-c1cccc(Cl)c1)C1CCCCC1` the activity change, negative = inhibition was inconclusive: -44.4%. For `CCOC(=O)C1(CCOc2ccccc2)CCN(Cc2cccc(-n3cccn3)c2)CC1`, the activity change, negative = inhibition was inactive: -39.1%. With `CN(Cc1ccccc1)C1CCCN(C(=O)COc2ccccc2Cl)C1` (stereo not given) the activity change, negative = inhibition was inconclusive: -49.1%. In the case of `Nc1[nH]n2c(=O)c3c(nc2c1N=Nc1ccccc1)CCCC3`, the activity change, negative = inhibition is reported as inconclusive: -43.8%. For `Cc1ccccc1-n1cc(-c2ccc(Br)cc2)nc1SCC(N)=O`, the activity change, negative = inhibition was inconclusive: -47.3%. In the case of `Cn1cccc1/C=C1\SC(=Nc2ccc(O)cc2)NC1=O`, the activity change, negative = inhibition is reported as active: -77.1%. For `Cc1cc(C)cc(NC(=O)CCN2C(=O)c3ccccc3Sc3ncccc32)c1`, the activity change, negative = inhibition was active: -60.5%. With `S=P(NCCNP(=S)(N1CC1)N1CC1)(N1CC1)N1CC1` the activity change, negative = inhibition was inconclusive: -48%. In the case of `O=C(NCCc1ccc(Cl)cc1)C1CCC(=O)N(C2CCCCCC2)C1` (stereo not given), the activity change, negative = inhibition is reported as active: -61.2%. For `CCCC(=O)NC(NC1CCS(=O)(=O)C1)C(Cl)(Cl)Cl` (stereo not given), the activity change, negative = inhibition was inconclusive: -57.5%. For `CCc1ccc(NC(=O)CSc2ccccn2)cc1`, the activity change, negative = inhibition was inconclusive: -42.1%. For `O=C(CCN1C(=O)c2cccc3cccc(c23)C1=O)NCc1ccco1`, the activity change, negative = inhibition was inconclusive: -42.1%. With `CCOc1cccc(C(=O)NC(=S)Nc2ccc3c(c2)OCCO3)c1` the activity change, negative = inhibition was inactive: 28.7%. In the case of `CCOC(=O)c1c(C)c(C)n(Cc2cccc(OC)c2OC)c1C`, the activity change, negative = inhibition is reported as active: -85%. For `CN(CCCNC(=O)c1cn(C)c2ccc(S(=O)(=O)N(C)C)cc2c1=O)c1ccccc1`, the activity change, negative = inhibition was active: -63.9%. In the case of `CCCCn1c2ccc(F)cc2c2nnc(SCCN3CCOCC3)nc21`, the activity change, negative = inhibition is reported as inconclusive: -45.2%. With `COc1ccc(NC(=O)C2(c3ccc(NC(=O)c4ccc(OC)cc4)cc3)CCCC2)cc1` the activity change, negative = inhibition was inconclusive: -50.3%. For `CC(C)CN(C(=O)CN1CCN(S(=O)(=O)c2ccc3ccccc3c2)CC1)c1c(N)n(CC(C)C)c(=O)[nH]c1=O`, the activity change, negative = inhibition was inconclusive: -47.7%. With `COC(=O)c1sccc1NC(=O)CC1C(=O)NCCN1C(=O)c1ccc(F)cc1` (stereo not given) the activity change, negative = inhibition was inactive: -34.5%. For `CCN(Cc1ccccc1)c1ccc(N=Nc2nn(C)c(C)c2[N+](=O)[O-])cc1`, the activity change, negative = inhibition was inconclusive: -46.3%. In the case of `O=C(Nc1ccc(Nc2ccccc2)cc1)c1c(F)c(F)c(F)c(F)c1F`, the activity change, negative = inhibition is reported as inconclusive: -56.5%. In the case of `CN(C)CCCN1c2ccccc2Sc2ccccc21`, the activity change, negative = inhibition is reported as inconclusive: -48.8%. With `CC(=O)CCSc1nnc(-c2cccc(S(=O)(=O)N3CCOCC3)c2)o1` the activity change, negative = inhibition was inactive: -4.5%. For `COc1cccc(CNCCSc2nnnn2C)c1OCc1ccc(Cl)cc1`, the activity change, negative = inhibition was inconclusive: -57.3%. For `CCCN(CCC)CCCNC(=O)c1cn(CC)c2ccc(S(=O)(=O)N3CCc4ccccc4C3)cc2c1=O`, the activity change, negative = inhibition was active: -82%. In the case of `CSC1=NC2(CCN(C(=O)NC3CCCCC3)CC2)N=C1c1ccc(C(C)(C)C)cc1`, the activity change, negative = inhibition is reported as inactive: -0.513%. For `Nc1c(C(=O)c2ccccc2)oc2ccccc12`, the activity change, negative = inhibition was inactive: 37.4%. In the case of `CCOc1ccc(N2C(=O)C3CCCN3C2=O)cc1` (stereo not given), the activity change, negative = inhibition is reported as inconclusive: -40.4%. For `Cc1nc2c(-c3ccccc3)c(C)nn2c(C)c1CCC(=O)NCc1ccco1`, the activity change, negative = inhibition was active: -97.6%. With `COC(=O)c1sccc1NC(=O)CSc1nnnn1-c1ccccc1F` the activity change, negative = inhibition was inconclusive: -46.2%. In the case of `Cc1cc(C)n(C(=O)c2ccccc2[N+](=O)[O-])n1`, the activity change, negative = inhibition is reported as inconclusive: -45.4%. For `COc1cc(/C=N/Nc2ccc([N+](=O)[O-])cn2)cc(OC)c1O`, the activity change, negative = inhibition was inconclusive: -53.8%. For `CCC(C)(C)C1CCC2(CC1)NC(=O)N(CC(=O)N(C)CC(=O)Nc1ccccc1C(F)(F)F)C2=O` (stereo not given), the activity change, negative = inhibition was inactive: -28.3%. With `O=C(c1ccccc1)N1CCN=C1c1ccccc1` the activity change, negative = inhibition was inactive: -13.9%. With `COc1ccccc1/C=C(/C(=O)OCC(=O)Nc1ccccc1C(C)C)c1ccccc1` the activity change, negative = inhibition was inconclusive: -47.5%. For `CCN1CCN(C(=O)c2ccc(COc3cccc(Cl)c3)o2)CC1`, the activity change, negative = inhibition was active: -68.8%. For `CC(=O)c1ccc(-n2c(C)c(C(C)=O)c3cc(O)ccc32)cc1`, the activity change, negative = inhibition was inconclusive: -45.6%. For `O=C(COc1cccc(Cl)c1)Nc1nc(-c2ccc(S(=O)(=O)N3CCOCC3)cc2)cs1`, the activity change, negative = inhibition was inconclusive: -58.8%. With `COc1ccc(C(=O)CC(Nc2ccc([N+](=O)[O-])cc2)c2ccc(Cl)cc2)cc1` (stereo not given) the activity change, negative = inhibition was active: -88%. In the case of `COc1cc(C(=O)NCC(=O)N/N=C/c2ccccn2)cc(OC)c1OC`, the activity change, negative = inhibition is reported as inconclusive: -50.8%. With `O=C(CN1C(=O)NC(Cc2c[nH]c3ccccc23)C1=O)NC1CCCCC1` (stereo not given) the activity change, negative = inhibition was inconclusive: -45.8%. In the case of `O=c1c2cc(NC(=S)NC3CCCCC3)ccc2nc2n1CCCCC2`, the activity change, negative = inhibition is reported as active: -79.5%. In the case of `C=CCn1c(C)cc(C(=O)COC(=O)CNC(=O)c2ccccc2)c1C`, the activity change, negative = inhibition is reported as inconclusive: -52.7%. For `O=C(CC12CC3CC(CC(C3)C1)C2)NCc1ccco1`, the activity change, negative = inhibition was inconclusive: -52.9%. In the case of `Cc1cc(C2(c3ccc(O)c(C)c3)OC(=O)c3ccccc32)ccc1O`, the activity change, negative = inhibition is reported as inactive: -29.3%. For `COc1cccc(-n2nnc3c(=O)n(CC(=O)Nc4cc(C)on4)cnc32)c1`, the activity change, negative = inhibition was inconclusive: -40.9%. For `Fc1cccc(CN(C2=NCCN2)c2c(Cl)cccc2Cl)c1`, the activity change, negative = inhibition was active: -63%. For `Cc1ccccc1-c1ccccc1CN1[C@@H](C(C)C)COCCS1(=O)=O`, the activity change, negative = inhibition was inconclusive: -42.4%. For `Cc1cccc(N2CCN(c3ncnc4onc(C)c34)CC2C)c1` (stereo not given), the activity change, negative = inhibition was active: -99.6%. For `COc1ccc(C(=O)NCC(=O)N=Nc2c(O)n(Cc3ccccc3)c3ccccc23)cc1OC`, the activity change, negative = inhibition was inconclusive: -50%. For `COc1cccc(Nc2nnc(SCC(=O)Nc3sccc3C(N)=O)s2)c1`, the activity change, negative = inhibition was inconclusive: -44.3%. For `N=c1c(S(=O)(=O)c2ccccc2)cc2c(=O)n3ccccc3nc2n1C1CCCCC1`, the activity change, negative = inhibition was inconclusive: -52.2%. For `CCCOc1ccccc1NC(=O)Nc1ccccc1Cl`, the activity change, negative = inhibition was inconclusive: -54.3%. With `CC(C)(C)NC(=O)NC(=O)C[n+]1ccc(Cc2ccc([N+](=O)[O-])cc2)cc1` the activity change, negative = inhibition was inconclusive: -41.8%. For `CC(=O)OC1CCC2(C)C(CCC3C2CC(=O)C2(C)C3CC(N3CC3)C2C(C)=O)C1` (stereo not given), the activity change, negative = inhibition was inconclusive: -58.3%. In the case of `COc1cc(Cl)ccc1NC(=S)N(CCCN1CCOCC1)Cc1cn(C)c2ccccc12`, the activity change, negative = inhibition is reported as active: -91.9%. For `COC(=O)C1=C(c2ccc(OCc3ccccc3)cc2)C[C@@H]2CC[C@H]1N2C(=O)NCc1cccc(F)c1`, the activity change, negative = inhibition was inconclusive: -43.4%. In the case of `CCN1CCN(c2nc(Nc3ccc(OC)cc3)nc(N)c2[N+](=O)[O-])CC1`, the activity change, negative = inhibition is reported as inconclusive: -47.7%. For `O=C(Cc1ccccc1F)N1CCC(c2nc3c(nnn3Cc3cccc(Cl)c3)c(=O)[nH]2)CC1`, the activity change, negative = inhibition was active: -62%. For `COc1ccccc1N1CCN(C(=O)c2cc3c(C)nc4ccccc4c3o2)CC1`, the activity change, negative = inhibition was active: -61.4%. For `O=C(NCCCCc1ccccc1)c1nn(-c2ccccc2)nc1CO`, the activity change, negative = inhibition was inactive: -7.77%. In the case of `c1ccc(Nc2nc(NCC3CCCO3)c3ccccc3n2)cc1` (stereo not given), the activity change, negative = inhibition is reported as inconclusive: -48.1%. In the case of `Cn1c(=O)oc2cc(S(=O)(=O)N3CCCC(C(=O)N4CCN(c5cccc(Cl)c5)CC4)C3)ccc21` (stereo not given), the activity change, negative = inhibition is reported as inconclusive: -53.1%. With `CCOC(=O)c1c(NC(=O)C(C)N2CCN(C(=O)c3ccco3)CC2)sc2c1CCCC2` (stereo not given) the activity change, negative = inhibition was inactive: -39.4%. In the case of `CCOc1ccc(-c2nonc2NC(=O)COc2ccccc2)cc1`, the activity change, negative = inhibition is reported as inactive: -7.86%. In the case of `CCc1ccc(N2CCn3c2nc2c3c(=O)n(CCCc3ccccc3)c(=O)n2C)cc1`, the activity change, negative = inhibition is reported as inconclusive: -58%. With `COc1cccc(Cl)c1NC(=O)N1CCc2c([nH]c3ccccc23)C1C(F)(F)F` (stereo not given) the activity change, negative = inhibition was inconclusive: -48.6%. For `O=[n+]1cc(-c2cccc3ccccc23)n([O-])c2c1CCC2`, the activity change, negative = inhibition was inactive: -2.46%.
